{"source": "patent US8183364B2", "about": "“Substituted porphyrins” (Duke University, priority 2004, dated 2012)", "origin": "cited, not measured here", "settings": "cited from earlier work", "note": "At least one structure is not confirmed: it was looked up by name or label, or the drawing left a doubt."}
{"smiles": "CC[n+]1ccccc1-c1c2nc(c(-c3cccc[n+]3CC)c3ccc([n-]3)c(-c3cccc[n+]3CC)c3nc(c(-c4cccc[n+]4CC)c4ccc1[n-]4)C=C3)C=C2.[Mn+3]", "note": "[MnTE-2-PyP^5+]", "values": [{"measurement": "rate constant of oxidation by O2.^−", "value": "8.2e+07", "unit": "M⁻¹ s⁻¹"}, {"measurement": "rate constant of reduction of the Mn porphyrin by O2.^−", "value": "2.5e+07", "unit": "M⁻¹ s⁻¹"}]}
